Reference: publication PMC8320207
Results are given in words; binding and its absence hold for the method and conditions named. Binding seen in cells or lysates may run through a third protein. Some binding calls cover weakened binding; strength is not graded here.

By UniProt entry, the sequences of proteins in these tests, tags left out.
UniProt Q04206: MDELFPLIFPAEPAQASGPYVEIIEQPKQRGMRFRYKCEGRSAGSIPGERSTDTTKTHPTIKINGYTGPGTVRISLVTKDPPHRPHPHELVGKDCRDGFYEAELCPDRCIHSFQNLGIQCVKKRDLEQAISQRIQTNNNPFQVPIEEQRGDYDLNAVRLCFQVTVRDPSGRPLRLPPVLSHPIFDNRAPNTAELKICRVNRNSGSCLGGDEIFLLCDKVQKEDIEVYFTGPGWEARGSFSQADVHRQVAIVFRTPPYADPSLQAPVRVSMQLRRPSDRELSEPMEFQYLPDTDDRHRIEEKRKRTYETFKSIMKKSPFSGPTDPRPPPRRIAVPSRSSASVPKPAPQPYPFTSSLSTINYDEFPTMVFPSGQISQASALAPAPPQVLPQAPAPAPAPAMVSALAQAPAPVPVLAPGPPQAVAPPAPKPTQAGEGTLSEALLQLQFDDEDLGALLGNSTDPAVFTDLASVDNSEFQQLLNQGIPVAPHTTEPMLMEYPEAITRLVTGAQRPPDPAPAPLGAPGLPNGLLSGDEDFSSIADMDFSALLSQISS

B1: inhibitor of NF-κB kinase subunit beta (IKKβ) (enzyme, UniProt O14920 1-756)
chain: MSWSPSLTTQTCGAWEMKERLGTGGFGNVIRWHNQETGEQIAIKQCRQELSPRNRERWCLEIQIMRRLTHPNVVAARDVPEGMQNLAPNDLPLLAMEYCQGGDLRKYLNQFENCCGLREGAILTLLSDIASALRYLHENRIIHRDLKPENIVLQQGEQRLIHKIIDLGYAKELDQGSLCTSFVGTLQYLAPELLEQQKYTVTVDYWSFGTLAFECITGFRPFLPNWQPVQWHSKVRQKSEVDIVVSEDLNGTVKFSSSLPYPNNLNSVLAERLEKWLQLMLMWHPRQRGTDPTYGPNGCFKALDDILNLKLVHILNMVTGTIHTYPVTEDESLQSLKARIQQDTGIPEEDQELLQEAGLALIPDKPATQCISDGKLNEGHTLDMDLVFLFDNSKITYETQISPRPQPESVSCILQEPKRNLAFFQLRKVWGQVWHSIQTLKEDCNRLQQGQRAAMMNLLRNNSCLSKMKNSMASMSQQLKAKLDFFKTSIQIDLEKYSEQTEFGITSDKLLLAWREMEQAVELCGRENEVKLLVERMMALQTDIVDLQRSPMGRKQGGTLDDLEEQARELYRRLREKPRDQRTEGDSQEMVRLLLQAIQSFEKKVRVIYTQLSKTVVCKQKALELLPKVEEVVSLMNEDEKTVVRLQEKRQKELWNLLKIACSKVRGPVSGSPDSMNASRLSQPGQLMSQPSTASNSLPEPAKKSEELVAEAHNLCTLLENAIQDTVREQDQSFTALDWSWLQTEEEEHSCLEQAS
B2: NF-κB inhibitor alpha (IκBα), P25963 1-317 (protein)
chain: MFQAAERPQEWAMEGPRDGLKKERLLDDRHDSGLDSMKDEEYEQMVKELQEIRLEPQEVPRGSEPWKQQLTEDGDSFLHLAIIHEEKALTMEVIRQVKGDLAFLNFQNNLQQTPLHLAVITNQPEIAEALLGAGCDPELRDFRGNTPLHLACEQGCLASVGVLTQSCTTPHLHSILKATNYNGHTCLHLASIHGYLGIVELLVSLGADVNAQEPCNGRTALHLAVDLQNPDLVSLLLKCGADVNRVTYQGYSPYQLTWGRPSTRIQQQLGQLTLENLQMLPESEDEESYDTESEFTEFTEDELPYDDCVFGGQRLTL

How the values were obtained:
NF-κB p65 = NF-κB p65 (UniProt Q04206); test: co-IP; IP and Western blot, cytoplasm, with rising doses of circIKBKB
NF-κB p65, Q04206 = test: co-IP; IP and Western blot, nuclear, cells with circIKBKB overexpressed or silenced; conditions: remark: other sources report otherwise

| Binder | binding (NF-κB p65) | binding (NF-κB p65, Q04206) |
| --- | --- | --- |
| B1 | binds | – |
| B2 | – | binds |
